PubChem BioAssay AID1159578, Peter MacCallum Cancer Centre | 2015

- Test: 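Genome-wide hunt for genes controlling movement of lymphatic endothelial cells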 (primary screen)
- Cell system: human lymphatic endothelial cells
- Knock-down reagent: siRNA pool against human genes, 40 nM
- Time to read-out: 48 h after transfection
- Measured: 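High-content imaging of dye-stained cells in a scratch assay measures filled wound area and nuclei per well; duplicate means given as ratio to mock and robust z-score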
- Scale: migration robust z-score: higher = faster migration into the scratch; nuclei per well: higher = more cells in the well
- Call rule: 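Pools averaging fewer than 3300 nuclei are never called; remaining pools count as changed when migration robust z lies outside -2 to 2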
- Calls: active = migration changed; inactive = no migration change, or too few cells
The deposit covers about 18,000 reagents; below is a part drawn at random. Over the whole deposit, about 1,030 (5.7%) were called active. 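Inactive calls also include pools with fewer than 3300 nuclei, whose migration was not assessed.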 Raw values are not corrected between plates. A number with no mark means an inactive call. Further read-outs or replicates are left out here. Reagent sequences are not shown.

| gene symbol | migration robust z-score | nuclei per well, duplicate mean |
| --- | --- | --- |
| ST6GALNAC4 (ST6 N-acetylgalactosaminide alpha-2,6-sialyltransferase 4) | 0.57 | 6006 |
| PPIF (peptidylprolyl isomerase F) | -0.34 | 6644 |
| RPL10L (ribosomal protein L10 like) | -3.68 | 2190 |
| CUL4A (cullin 4A) | 0.93 | 5528 |
| IYD (iodotyrosine deiodinase) | 0.88 | 5980 |
| SLC2A14 | 0.02 | 5315 |
| PIP5KL1 (phosphatidylinositol-4-phosphate 5-kinase like 1) | -3.5 | 3122 |
| PLK4 (polo like kinase 4) | -4.8 | 2278 |
| TBC1D21 (TBC1 domain family member 21) | -2.15 (active) | 4957 |
| RFTN1 (raftlin, lipid raft linker 1) | -0.94 | 6366 |
| KRR1 (KRR1 small subunit processome component) | -0.08 | 6064 |
| NCR1 (natural cytotoxicity triggering receptor 1) | 0.44 | 5200 |

Reagents listed above with an active call:
| gene symbol | migration robust z-score | nuclei per well, duplicate mean |
| --- | --- | --- |
| TBC1D21 (TBC1 domain family member 21) | -2.15 (active) | 4957 |

Continued:
| gene symbol | migration robust z-score | nuclei per well, duplicate mean |
| --- | --- | --- |
| PROC (protein C, inactivator of coagulation factors Va and VIIIa) | -0.62 | 3832 |
| PSIP1 (PC4 and SRSF1 interacting protein 1) | -0.4 | 5398 |
| SHROOM3 (shroom family member 3) | -1.5 | 3518 |
| THOC1 (THO complex subunit 1) | -0.48 | 7359 |
| CLCC1 (chloride channel CLIC like 1) | 0.18 | 5194 |
| ADAT3 (adenosine deaminase tRNA specific 3) | 0.43 | 5740 |
| PTPRN2 (protein tyrosine phosphatase receptor type N2) | -0.28 | 6481 |
| QDPR (quinoid dihydropteridine reductase) | -0.62 | 6120 |
| PRR14 (proline rich 14) | 0.94 | 4538 |
| SARM1 (sterile alpha and TIR motif containing 1) | -2.67 | 2896 |
| ABCA6 (ATP binding cassette subfamily A member 6) | 0.83 | 5870 |
